At least one structure is not confirmed: it was looked up by name or label, or the drawing left a doubt.
System: Taq polymerase
Assay: Taq polymerase assay (PCR, agarose gel)
Assay type: biochemical

SMILES: Cc1cccc(C(=O)Oc2c3cccc(Cl)c3cc3cccc(Cl)c23)c1 [Compound 3n, 1,5-Dichloro-9-(m-toluyloxy)-anthracene]
- Taq Inhibition 0.01 mM (0.01 mM compound): −
- Taq Inhibition 0.1 mM (0.1 mM compound): +
- Taq Inhibition 1 mM (1 mM compound): +

— US6369246B2, “Synthesis and pharmaceuticals of novel 9-substituted-1, 5-dichloroanthracene analogs” (Dr. Keith Chan, GloboAsia, LLC, priority 1999, dated 2002)
